# ± gives the standard deviation of the averaged measurements. The entries are a selection whose mix differs from that of the whole data set.
# Molecular target: VKORC1 (UniProt Q9BQB6)
# Assay: NP40-soluble protein abundance relative to vehicle (solubility fold change) (ratio); higher = more soluble protein in presence of ATP
# How it was run: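 Eight concentrations, 0.1 to 10 mM, were tested on Jurkat crude lysate for 10 min at room temperature and then 3 min at 37 °C, in three independent experiments. The lysate was solubilised with 0.8% NP40 and benzonase, ultracentrifuged, and the supernatant TMT-labelled for LC-MS/MS. Each value is the fold change against the detergent-processed vehicle in its own replicate, from vsn-normalised intensities.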
smiles,measurement,setting,value
Nc1ncnc2c1ncn2[C@@H]1O[C@H](COP(=O)(O)OP(=O)(O)OP(=O)(O)O)[C@@H](O)[C@H]1O [adenosine triphosphate],NP40-soluble protein abundance,concentration: 1mM,1.08 ± 0.15
same,NP40-soluble protein abundance,concentration: 2mM,1.06 ± 0.092
same,NP40-soluble protein abundance,concentration: 4mM,1.04 ± 0.088
same,NP40-soluble protein abundance,concentration: 6mM,0.948 ± 0.099
same,NP40-soluble protein abundance,concentration: 8mM,0.982 ± 0.035
same,NP40-soluble protein abundance,concentration: 10mM,1.035 ± 0.0075
